Test results from the supplement of paper PMC12889115.
Some of the results follow. These are raw signals, not scaled to a control.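 Primary screen: polymyxin B was added at a level permeabilizing Salmonella outer membranes while sparing inner membranes. DMSO wells, both with and without polymyxin B, established maximum growth. Plate-to-plate variation meant each plate was ranked on its own, and the lowest-OD600 compounds were selected as hits.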

Test system: Salmonella enterica serovar Typhimurium SL1344
Test: bacterial growth OD600 after 18 h with compound and polymyxin B; higher = more bacterial growth (less inhibition)
Conditions: 50 µM, Mueller-Hinton broth

Structure (SMILES) | bacterial growth OD600 (polymyxin B 0.75 µg/mL) | bacterial growth OD600 (polymyxin B 1 µg/mL)
OCC1CCN(c2nncc(-c3ccc(Cl)cc3)n2)CC1 | 0.592 | 
COc1ccc(CN2CCN(Cc3cccc(OC)c3OC)CC2CCO)c(C)c1C (stereo not given) |  | 1.01
CCC(=O)N[C@@H]1c2ccccc2C2(CCN(C(=O)c3cc(C)ccc3C)CC2)[C@H]1OCc1cccnc1 | 0.688 | 
Cc1nc2ccccc2n1Cc1cc(C(=O)N2CCSCC2)n[nH]1 |  | 0.949
O=C(NCc1ccccn1)c1cccc(OC2CCN(C(=O)c3cscn3)CC2)c1 |  | 0.921
Cn1cc(CN2CCC(C(N)=O)CC2)c(-c2ccc(C3CCCCC3)cc2)n1 |  | 0.811
CCOC(=O)CNC(=O)N1CCCC(C(=O)c2ccc3cc(OC)ccc3c2)C1 (stereo not given) |  | 0.766
COCc1ccc(C(=O)Nc2ccc(-c3nc(CNC(=O)C4CCCCC4)c(C)o3)cc2)o1 | 0.657 | 
CCc1[nH]c2c(CNC(=O)CCn3cncn3)cc(C)cc2c1C |  | 0.919
COc1ccc(-n2ccnc2CNC2CCCN(c3ncccn3)C2)cc1 (stereo not given) |  | 1.03
Cc1ccc(-c2cccc(CN3CCC4(CCCN(C)C4=O)C3)c2)o1 (stereo not given) | 0.98 | 
CCOC(=O)C1(CCCc2ccccc2)CCN(C(=O)c2cccnc2C)CC1 |  | 0.783
CCN1CCN(C2(C(=O)NCc3cccc4[nH]ccc34)Cc3ccccc3C2)CC1 | 0.859 | 
COc1ccccc1CCc1nnc(CCC(=O)NCCSC)o1 |  | 0.852
CCc1ocnc1C(=O)NC1CC(=O)N(CCCc2ccccc2)C1 (stereo not given) |  | 1.01
CC(C)Cc1noc(-c2ccc(N3CCCOCC3)nc2)n1 |  | 0.916
CC(C)N1CCC(N2CCCC(C(=O)NC3CCCCC3)C2)CC1 (stereo not given) | 0.96 | 
c1ccc(Cc2noc(-c3ccc(NCC4COCCO4)nc3)n2)cc1 (stereo not given) | 0.792 | 
O=C(NCCCc1ccncc1)C1CC12CCN(C(=O)c1ccc(-c3cccc(F)c3)cc1)CC2 (stereo not given) | 0.771 | 
O=C1CCC(C(=O)N2CCC(Cc3ccccc3)CC2)CN1CCCN1CCOCC1 (stereo not given) |  | 0.954
COCCN1CC(C(=O)NCc2ccc(OC(F)(F)F)cc2)CCC1=O (stereo not given) |  | 0.954
CN(C)C1CCN(c2nc3nonc3nc2N2CCCCC2)C1 (stereo not given) | 0.839 | 
Cc1cc(C(F)(F)F)nc(CCNC(=O)Cn2cc(NC(=O)CSc3ccccc3)cn2)n1 | 0.843 | 
COc1ccc(OC2CCN(C3CCCC3)CC2)c(C(=O)N2CCN(C)C[C@@H]2C(C)C)c1 |  | 1.27
COC(=O)CCCC(=O)N1CCC(C2CCN(c3ncccn3)CC2)C1 (stereo not given) | 0.85 | 
COCC1CCCCN1C(=O)c1ccc(OC2CCN(C(=O)C3CC3)CC2)cc1 (stereo not given) |  | 0.869
CSc1ccccc1C(=O)NCc1c(C)ncc2c1CCN(C(=O)c1ccc(C)cc1C)C2 | 0.778 | 
CCC(COC)NC(=O)C1CCN(c2nc(C)c3ccc(S(C)(=O)=O)cc3n2)CC1 (stereo not given) | 0.977 | 
COC(=O)c1cc(CNC(=O)c2cccc(OC)c2OC)cc(NC(=O)/C=C/c2cccc(F)c2)c1 | 0.542 | 
COc1ccc2c(C)nc(N3CCCC(C(=O)N4CCC(C(O)c5ccccc5)CC4)C3)nc2c1 (stereo not given) | 0.003 | 

Some values from the entries so far.
Value of COc1ccccc1CCc1nnc(CCC(=O)NCCSC)o1 under bacterial growth OD600 (polymyxin B 1 µg/mL): 0.852
Value of OCC1CCN(c2nncc(-c3ccc(Cl)cc3)n2)CC1 under bacterial growth OD600 (polymyxin B 0.75 µg/mL): 0.592
